PubChem BioAssay AID540276 (National Center for Advancing Translational Sciences (NCATS), 2011)
Among all 300,000 compounds or so, about 5,400 (1.8%) were called active. The inconclusive results got no clear call from the source; some entries with a clear call stand among them for comparison. The call rests on the fitted dose curve; tested in HEK293 cells. Potencies of inconclusive entries are doubtful fits and often do not repeat.

Test: qHTS for inhibitors of binding or entry into cells for Marburg Virus
Details: Marburg virus pseudotyped entry inhibition, cell reporter; activity change, negative = inhibition: at 37.8 µM (top of the series) unless noted
On the % scale 0 is the no-effect control and ±100 the full control effect; potency means the concentration at half of the fitted maximal effect.

| Structure (SMILES) | Potency | activity change, negative = inhibition |
| --- | --- | --- |
| CCCCc1c(C)nc(Nc2ccc(OC)cc2)[nH]c1=O | inconclusive: 1.26 µM [inhibitor, single point] |  |
| O=C(NCC1COc2ccccc2O1)C1CCCN(S(=O)(=O)c2cccc3nsnc23)C1 (stereo not drawn) | inconclusive: 28.2 µM [inhibitor, partial curve, poor fit] |  |
| COc1nc(C)nc(Cl)c1NC1=NCCN1 | inactive |  |
| NC(=S)Nc1nccc(-c2cccs2)n1 |  | inactive: 11.4% [at 46.1 µM] |
| Cc1cccc(NC(=O)CN2C(=O)N/C(=C/c3cc(C)n(C(C)C)c3C)C2=O)c1 | inconclusive: 3.66 µM [inhibitor, full curve, poor fit] |  |
| COc1ccccc1Nc1nc(-c2c(C)[nH]c3ccccc23)cs1 |  | inactive: 3.22% |
| O=C(CCl)c1ccc2c(c1)CCN2C(=O)C1CCCCC1 | inconclusive: 7.94 µM [inhibitor, partial curve, poor fit] |  |
| O=C(O)CCC(=O)Nc1nc2ccc([N+](=O)[O-])cc2s1 | inconclusive: 8.91 µM [activator, partial curve] |  |
| O=C(N/N=C/c1ccc2c(c1)OCO2)C(=O)Nc1cccc(Cl)c1 |  | inactive: 7.8% [at 46.1 µM] |
| CCCS(=O)(=O)N1CCN(C2CCC(C)CC2)CC1 (stereo not drawn) |  | inactive: -0.739% [at 46.1 µM] |
| O=C(CCl)Nc1cn(-c2ccccc2)nc1-c1ccccc1 | active: 16.4 µM |  |
| Cc1c(C(=O)NCc2ccc(Cl)cc2)oc2ccc3c(c12)C(=O)CC(C)(C)O3 | inconclusive: 35.5 µM [inhibitor, single point] |  |
| CCc1cc2cc3c(cc2nc1SCC(=O)Nc1nnc(C)s1)OCCO3 | inconclusive: 29.1 µM [inhibitor, single point] |  |
| Cc1ccccc1Nc1oc(-c2ccccc2)nc1-c1cccc2ccccc12 | inactive |  |
| COc1ccc(OCC(=O)c2c(O)c3ccccc3oc2=O)cc1 |  | inactive: -10% |
| Cc1ccc(S(=O)(=O)N2CCN(c3ncnc4scc(-c5ccccc5)c34)CC2)cc1 | inconclusive: 10 µM [inhibitor, partial curve, poor fit] |  |
| CSc1ncccc1C(=O)NCC(c1cccs1)N1CCOCC1 (stereo not drawn) |  | inactive: 0.964% |
| CN(C)C(=O)C(OC(=O)c1ccc2ccccc2n1)c1ccccc1 (stereo not drawn) |  | inactive: 5.29% [at 46.1 µM] |
| COc1ccc(Nc2nc(-c3cccnc3)cs2)c(OC)c1 |  | inactive: -1.51% |
| O=C(O)C(c1ccccc1)N1C(=O)/C(=C\c2ccc(-c3ccccc3Cl)o2)SC1=S (stereo not drawn) |  | inactive: -3.73% |
| Cc1ccccc1CNC(=O)CCc1ccccc1 | inconclusive: 35.5 µM [inhibitor, single point] |  |
| COC/C=C/C1=CC2=CC(=O)C(C)(OC(=O)c3cnc4ccccc4n3)C(=O)C2=CN1CCCCO (stereo not drawn) | inconclusive: 1.88 µM [activator, single point] |  |
| COc1cc(NC(C)C(=O)N2CC(C)OC(C)C2)cc(OC)c1 (stereo not drawn) |  | inactive: 8.97% |
| CN(C)CCNC(=O)CN1C(=O)COc2ccc(S(=O)(=O)N3CCCC3)cc21 |  | inactive: 1.51% [at 46.1 µM] |

Some values from the entries so far:
Potency, Cc1cccc(NC(=O)CN2C(=O)N/C(=C/c3cc(C)n(C(C)C)c3C)C2=O)c1 is entered as inconclusive: 3.66 µM [inhibitor, full curve, poor fit]
Potency, O=C(CCl)Nc1cn(-c2ccccc2)nc1-c1ccccc1 is entered as active: 16.4 µM
activity change, negative = inhibition, CN(C)CCNC(=O)CN1C(=O)COc2ccc(S(=O)(=O)N3CCCC3)cc21 is entered as inactive: 1.51% [at 46.1 µM]
activity change, negative = inhibition, COc1ccc(OCC(=O)c2c(O)c3ccccc3oc2=O)cc1 is entered as inactive: -10%

(continued)

| Structure (SMILES) | Potency | activity change, negative = inhibition |
| --- | --- | --- |
| COc1ccc(C2=Nc3ccccc3NC(c3cccs3)=N2)cc1 | active: 20 µM |  |
| CCn1cc(C(=O)NC(C)CCc2ccccc2)c(=O)c2cc(S(=O)(=O)N(C)C)ccc21 (stereo not drawn) | inconclusive: 15.8 µM [inhibitor, single point] |  |
| CC(C(=O)N1CCN(Cc2ccc3c(c2)OCO3)CC1)c1ccc([N+](=O)[O-])cc1 (stereo not drawn) | inconclusive: 5.62 µM [activator, single point] |  |
| CNc1nc(SC)nc(N(C#N)CC(=O)OC)n1 | inconclusive: 5.62 µM [activator, single point] |  |
| Cc1nc2c(cnn2CCO)c(=O)[nH]1 |  | inactive: 6.58% [at 46.1 µM] |
| CC1Cc2ccccc2N1C(=O)CNCCCN(C)C (stereo not drawn) |  | inactive: 2.29% |
| Cc1ccccc1Cn1cc(S(=O)(=O)CC(=O)Nc2nccs2)c2ccccc21 | inconclusive: 29.1 µM [inhibitor, single point] |  |
| COc1ccc(OC)c(N2C(=O)[C@@H]3C(c4ccccc4Cl)=NO[C@@H]3C2=O)c1 | inconclusive: 35.5 µM [inhibitor, single point] |  |
| Cc1cccc(N2C(=O)CC(N(O)c3ccccc3)C2=O)c1 (stereo not drawn) |  | inactive: 23.3% |
| CCCCN1C(=O)/C(=C/C=C2\SCCN2C)SC1=S |  | inactive: -20.5% [at 46.1 µM] |
| Cc1ccc(S(=O)(=O)N(Cc2ccccc2)c2ccccc2C(=O)NCc2ccco2)cc1 | inconclusive: 23.1 µM [inhibitor, single point] |  |
| O=C(CC(=O)c1ccccn1)c1ccccc1 | inconclusive: 35.5 µM [inhibitor, single point] |  |
| COc1ccccc1CNC(=O)CCCN1C(=O)COc2ccc(C)cc21 |  | inactive: -14.6% |
| CC(=O)Nc1ccc(S(=O)(=O)Oc2ccccc2N2CCCCC2)cc1 | inconclusive: 10 µM [inhibitor, partial curve, poor fit] |  |
| CS(=O)(=O)c1cccc(C(=O)N(CCc2ccccc2)Cc2cccs2)c1 | inconclusive: 35.5 µM [inhibitor, single point] |  |
| O=C(NC1CCCCCC1)C1CCN(C(=O)c2ccc(Cl)cc2)CC1 | inconclusive: 35.5 µM [inhibitor, single point] |  |
| COC(=O)c1c(NC(=O)COC(=O)[C@@H](NS(=O)(=O)c2ccccc2)C(C)C)sc2c1CCC2 | inconclusive: 4.47 µM [inhibitor, full curve] |  |
| Cc1ccsc1C(=O)C1CCCN(Cc2cnc(N)nc2)C1 (stereo not drawn) | inconclusive: 2.24 µM [inhibitor, partial curve, poor fit] |  |
| COc1ccc(/C=N/Nc2cc(N(C)C)nc(N(C)C)n2)cc1 | active: 4.47 µM |  |
| COc1cc(CNc2ccc(N3CCOCC3)c(C(=O)O)c2)ccc1OCC(N)=O | inconclusive: 0.411 µM [activator, full curve, poor fit] |  |
| Cc1ccc2c(CSc3nncn3C)cc(=O)oc2c1C | inconclusive: 6.31 µM [activator, partial curve, poor fit] |  |
| Cc1cc(NC(=O)n2ncc3c(C)cccc32)ccc1Br |  | inactive: 17.2% [at 46.1 µM] |
| CCOC(=O)C1(C)C=C(Nc2ccc(NC(C)=O)cc2)C(=O)N1c1ccc(NC(C)=O)cc1 (stereo not drawn) | inconclusive: 3.55 µM [inhibitor, partial curve, poor fit] |  |
| COc1ccc2cc(CCNC(=O)C3CC3)c(=O)[nH]c2c1 |  | inactive: 19.5% |
